Data taken from the supplement of paper PMC10849652.
The list shows a part of the results.

The chains behind the UniProt entries cited, without tags or fusion partners. Where a name states a change or a piece, a line headed by the entry shows the natural chain unless it says otherwise.
UniProt H0YH80: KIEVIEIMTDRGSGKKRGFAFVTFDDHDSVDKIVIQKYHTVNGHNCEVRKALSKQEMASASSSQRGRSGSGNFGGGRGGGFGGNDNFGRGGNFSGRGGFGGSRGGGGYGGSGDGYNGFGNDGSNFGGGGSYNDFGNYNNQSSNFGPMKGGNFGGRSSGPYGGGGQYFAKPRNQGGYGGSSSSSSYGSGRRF
UniProt Q96ED9: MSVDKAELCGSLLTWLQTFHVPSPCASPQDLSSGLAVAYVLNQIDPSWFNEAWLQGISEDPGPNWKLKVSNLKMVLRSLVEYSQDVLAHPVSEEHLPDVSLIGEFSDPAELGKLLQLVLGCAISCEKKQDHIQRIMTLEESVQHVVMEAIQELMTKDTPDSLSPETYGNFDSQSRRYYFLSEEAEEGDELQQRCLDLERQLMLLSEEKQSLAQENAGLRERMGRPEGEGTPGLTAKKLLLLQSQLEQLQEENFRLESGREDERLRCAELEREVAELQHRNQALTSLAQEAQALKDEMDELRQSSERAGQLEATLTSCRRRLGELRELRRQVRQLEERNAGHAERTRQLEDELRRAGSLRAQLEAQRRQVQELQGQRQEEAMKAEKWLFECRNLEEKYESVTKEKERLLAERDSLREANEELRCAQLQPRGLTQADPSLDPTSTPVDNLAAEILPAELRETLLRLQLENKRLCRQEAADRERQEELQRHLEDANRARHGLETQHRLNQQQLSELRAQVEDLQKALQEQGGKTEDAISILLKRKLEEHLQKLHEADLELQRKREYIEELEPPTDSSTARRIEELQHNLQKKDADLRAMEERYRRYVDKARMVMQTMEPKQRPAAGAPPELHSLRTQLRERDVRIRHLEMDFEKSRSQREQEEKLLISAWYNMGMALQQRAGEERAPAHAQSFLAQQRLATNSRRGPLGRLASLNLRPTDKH
UniProt Q9UGU5: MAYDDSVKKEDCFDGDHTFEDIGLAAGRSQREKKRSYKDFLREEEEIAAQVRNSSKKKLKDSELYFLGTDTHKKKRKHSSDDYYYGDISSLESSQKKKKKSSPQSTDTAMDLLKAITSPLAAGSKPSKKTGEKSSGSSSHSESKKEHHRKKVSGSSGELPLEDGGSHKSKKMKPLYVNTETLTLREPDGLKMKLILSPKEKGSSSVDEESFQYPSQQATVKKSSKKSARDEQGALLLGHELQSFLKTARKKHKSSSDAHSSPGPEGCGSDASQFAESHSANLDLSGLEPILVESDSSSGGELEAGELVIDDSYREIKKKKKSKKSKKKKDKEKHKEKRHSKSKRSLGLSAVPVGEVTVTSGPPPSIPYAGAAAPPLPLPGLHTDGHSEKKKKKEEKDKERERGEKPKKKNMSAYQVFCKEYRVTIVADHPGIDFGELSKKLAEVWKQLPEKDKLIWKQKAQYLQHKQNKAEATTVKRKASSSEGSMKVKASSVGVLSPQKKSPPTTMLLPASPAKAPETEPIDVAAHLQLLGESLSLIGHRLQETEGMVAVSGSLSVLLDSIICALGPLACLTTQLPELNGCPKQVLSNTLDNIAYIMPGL
UniProt Q659A1: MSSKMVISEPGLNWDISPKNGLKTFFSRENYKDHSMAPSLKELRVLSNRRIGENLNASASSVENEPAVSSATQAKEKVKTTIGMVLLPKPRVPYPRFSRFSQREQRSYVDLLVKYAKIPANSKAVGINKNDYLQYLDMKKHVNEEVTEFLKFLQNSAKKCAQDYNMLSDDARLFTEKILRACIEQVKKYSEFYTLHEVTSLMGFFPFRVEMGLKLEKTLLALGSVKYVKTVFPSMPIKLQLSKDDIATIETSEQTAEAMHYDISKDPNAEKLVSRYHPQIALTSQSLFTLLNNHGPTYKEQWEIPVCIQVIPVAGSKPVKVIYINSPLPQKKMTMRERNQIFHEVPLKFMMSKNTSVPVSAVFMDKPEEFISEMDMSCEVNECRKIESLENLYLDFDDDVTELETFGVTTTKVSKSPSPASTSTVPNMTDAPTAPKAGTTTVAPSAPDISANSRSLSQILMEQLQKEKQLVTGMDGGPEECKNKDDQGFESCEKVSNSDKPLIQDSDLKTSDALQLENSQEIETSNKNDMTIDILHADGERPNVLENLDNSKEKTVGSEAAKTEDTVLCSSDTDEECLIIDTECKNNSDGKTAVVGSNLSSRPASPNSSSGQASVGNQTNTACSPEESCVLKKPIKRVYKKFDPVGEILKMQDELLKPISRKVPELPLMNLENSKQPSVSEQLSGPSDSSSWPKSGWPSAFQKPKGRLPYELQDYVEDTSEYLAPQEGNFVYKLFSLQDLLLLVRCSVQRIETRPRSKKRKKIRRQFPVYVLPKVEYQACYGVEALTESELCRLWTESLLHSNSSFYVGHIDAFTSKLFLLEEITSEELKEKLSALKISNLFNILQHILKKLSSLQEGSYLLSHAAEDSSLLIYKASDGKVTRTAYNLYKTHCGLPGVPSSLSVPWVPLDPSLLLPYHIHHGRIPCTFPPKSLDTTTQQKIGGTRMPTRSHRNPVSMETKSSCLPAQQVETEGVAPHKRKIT
UniProt Q9NSB8: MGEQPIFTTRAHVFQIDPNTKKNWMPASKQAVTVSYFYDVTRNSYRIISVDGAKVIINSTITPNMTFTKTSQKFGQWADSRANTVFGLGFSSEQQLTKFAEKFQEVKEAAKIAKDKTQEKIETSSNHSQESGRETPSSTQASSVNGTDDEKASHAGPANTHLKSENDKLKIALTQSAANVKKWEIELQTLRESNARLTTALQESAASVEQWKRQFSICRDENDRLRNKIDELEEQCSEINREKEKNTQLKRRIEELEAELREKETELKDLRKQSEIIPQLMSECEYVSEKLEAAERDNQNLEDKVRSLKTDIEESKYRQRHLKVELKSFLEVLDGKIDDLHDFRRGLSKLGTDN
UniProt Q92902: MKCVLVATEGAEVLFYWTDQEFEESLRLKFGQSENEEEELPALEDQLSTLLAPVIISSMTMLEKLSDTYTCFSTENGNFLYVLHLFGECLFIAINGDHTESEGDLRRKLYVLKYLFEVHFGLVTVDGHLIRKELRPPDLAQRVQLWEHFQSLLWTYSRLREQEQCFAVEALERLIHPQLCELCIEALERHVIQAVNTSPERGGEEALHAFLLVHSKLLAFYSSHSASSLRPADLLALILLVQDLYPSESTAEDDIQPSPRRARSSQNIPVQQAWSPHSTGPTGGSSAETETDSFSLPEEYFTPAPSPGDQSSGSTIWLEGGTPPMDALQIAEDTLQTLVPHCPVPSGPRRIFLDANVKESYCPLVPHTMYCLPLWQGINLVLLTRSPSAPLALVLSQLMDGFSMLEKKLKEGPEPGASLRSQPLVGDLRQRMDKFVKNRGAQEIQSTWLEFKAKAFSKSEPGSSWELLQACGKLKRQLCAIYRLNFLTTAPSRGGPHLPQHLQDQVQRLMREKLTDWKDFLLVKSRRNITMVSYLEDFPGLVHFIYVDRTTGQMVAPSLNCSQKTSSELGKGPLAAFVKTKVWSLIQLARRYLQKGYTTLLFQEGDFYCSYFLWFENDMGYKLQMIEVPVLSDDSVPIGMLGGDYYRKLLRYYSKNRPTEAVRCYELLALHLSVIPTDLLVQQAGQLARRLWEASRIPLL
UniProt Q8TCT9: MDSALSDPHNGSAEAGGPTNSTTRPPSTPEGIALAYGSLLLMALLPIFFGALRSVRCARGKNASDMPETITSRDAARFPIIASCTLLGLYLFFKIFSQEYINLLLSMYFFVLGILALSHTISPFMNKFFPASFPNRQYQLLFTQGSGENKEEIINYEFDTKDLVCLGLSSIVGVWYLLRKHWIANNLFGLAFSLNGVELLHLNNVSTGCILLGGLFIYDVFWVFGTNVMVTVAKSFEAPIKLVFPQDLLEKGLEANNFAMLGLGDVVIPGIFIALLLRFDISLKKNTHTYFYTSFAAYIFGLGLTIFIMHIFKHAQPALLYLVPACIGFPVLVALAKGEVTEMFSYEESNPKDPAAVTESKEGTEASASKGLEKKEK
UniProt Q9P0W2: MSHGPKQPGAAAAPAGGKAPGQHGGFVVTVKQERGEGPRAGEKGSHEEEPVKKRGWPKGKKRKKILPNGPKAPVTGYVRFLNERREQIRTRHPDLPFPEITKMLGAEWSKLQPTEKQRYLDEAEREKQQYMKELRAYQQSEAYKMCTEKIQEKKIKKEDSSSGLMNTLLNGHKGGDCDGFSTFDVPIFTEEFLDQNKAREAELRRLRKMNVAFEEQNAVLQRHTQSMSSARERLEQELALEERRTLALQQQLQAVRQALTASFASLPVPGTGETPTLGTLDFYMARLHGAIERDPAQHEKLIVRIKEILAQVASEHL
UniProt O43390: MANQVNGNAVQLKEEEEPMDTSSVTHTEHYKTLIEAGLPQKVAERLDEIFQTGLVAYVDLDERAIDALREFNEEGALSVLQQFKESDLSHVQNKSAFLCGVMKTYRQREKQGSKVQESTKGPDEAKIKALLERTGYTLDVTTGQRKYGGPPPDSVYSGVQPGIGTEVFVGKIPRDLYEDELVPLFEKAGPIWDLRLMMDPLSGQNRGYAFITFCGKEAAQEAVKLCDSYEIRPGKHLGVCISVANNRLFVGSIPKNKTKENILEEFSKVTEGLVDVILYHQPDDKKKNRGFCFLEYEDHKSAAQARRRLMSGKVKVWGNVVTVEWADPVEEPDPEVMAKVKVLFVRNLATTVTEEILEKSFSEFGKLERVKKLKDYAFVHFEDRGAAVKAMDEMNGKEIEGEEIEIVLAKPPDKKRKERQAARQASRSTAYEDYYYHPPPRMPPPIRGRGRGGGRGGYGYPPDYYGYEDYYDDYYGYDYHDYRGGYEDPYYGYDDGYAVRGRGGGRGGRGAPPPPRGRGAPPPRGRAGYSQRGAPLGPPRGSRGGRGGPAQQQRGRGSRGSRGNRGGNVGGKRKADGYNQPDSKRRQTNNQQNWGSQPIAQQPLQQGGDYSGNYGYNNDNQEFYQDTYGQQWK
UniProt Q96EW2: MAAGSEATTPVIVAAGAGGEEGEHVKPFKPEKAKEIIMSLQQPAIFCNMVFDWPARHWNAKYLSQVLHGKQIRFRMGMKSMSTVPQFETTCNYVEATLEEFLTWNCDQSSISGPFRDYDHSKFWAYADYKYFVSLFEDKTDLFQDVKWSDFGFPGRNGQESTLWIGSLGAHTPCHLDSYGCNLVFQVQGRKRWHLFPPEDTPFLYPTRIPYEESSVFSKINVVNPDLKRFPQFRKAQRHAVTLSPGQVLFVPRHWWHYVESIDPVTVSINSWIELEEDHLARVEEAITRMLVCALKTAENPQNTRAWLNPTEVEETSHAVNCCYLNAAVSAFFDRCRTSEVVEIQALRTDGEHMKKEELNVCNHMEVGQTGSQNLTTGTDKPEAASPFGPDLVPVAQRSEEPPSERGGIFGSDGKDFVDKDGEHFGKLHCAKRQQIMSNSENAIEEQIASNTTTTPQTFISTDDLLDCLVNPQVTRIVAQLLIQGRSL
UniProt P04439, whole entry, looked up: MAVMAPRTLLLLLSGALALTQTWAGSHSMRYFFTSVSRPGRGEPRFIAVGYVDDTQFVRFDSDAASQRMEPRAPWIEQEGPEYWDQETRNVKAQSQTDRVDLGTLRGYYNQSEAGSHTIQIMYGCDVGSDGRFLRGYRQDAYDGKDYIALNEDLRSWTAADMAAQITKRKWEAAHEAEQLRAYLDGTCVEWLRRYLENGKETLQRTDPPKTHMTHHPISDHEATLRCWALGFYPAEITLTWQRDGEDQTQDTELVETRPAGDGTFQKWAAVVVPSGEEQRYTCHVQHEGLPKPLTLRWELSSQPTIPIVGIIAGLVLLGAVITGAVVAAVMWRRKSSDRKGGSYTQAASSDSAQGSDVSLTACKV
UniProt Q05084: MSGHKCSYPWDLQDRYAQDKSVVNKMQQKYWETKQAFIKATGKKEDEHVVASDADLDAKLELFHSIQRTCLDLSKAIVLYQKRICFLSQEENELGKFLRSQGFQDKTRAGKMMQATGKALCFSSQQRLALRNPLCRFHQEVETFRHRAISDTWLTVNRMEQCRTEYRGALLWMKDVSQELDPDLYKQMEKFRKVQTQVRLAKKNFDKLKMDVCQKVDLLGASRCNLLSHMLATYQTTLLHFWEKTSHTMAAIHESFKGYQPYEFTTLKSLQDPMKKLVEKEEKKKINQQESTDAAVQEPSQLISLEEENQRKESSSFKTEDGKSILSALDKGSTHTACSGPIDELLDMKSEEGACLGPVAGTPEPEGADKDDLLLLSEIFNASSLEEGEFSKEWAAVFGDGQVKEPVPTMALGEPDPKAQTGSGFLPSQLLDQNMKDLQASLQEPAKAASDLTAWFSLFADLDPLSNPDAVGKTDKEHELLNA
UniProt Q9NSC5: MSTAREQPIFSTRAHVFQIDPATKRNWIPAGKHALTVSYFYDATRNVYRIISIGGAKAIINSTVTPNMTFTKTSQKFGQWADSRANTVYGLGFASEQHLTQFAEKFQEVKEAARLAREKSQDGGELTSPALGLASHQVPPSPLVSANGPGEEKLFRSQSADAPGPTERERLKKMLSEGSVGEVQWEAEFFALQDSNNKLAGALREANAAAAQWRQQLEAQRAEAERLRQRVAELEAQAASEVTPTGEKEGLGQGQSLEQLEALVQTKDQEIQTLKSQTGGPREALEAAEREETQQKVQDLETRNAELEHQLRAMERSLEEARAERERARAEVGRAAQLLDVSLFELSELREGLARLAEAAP

These targets were tested with CN1CC[C@H](c2c(O)cc(O)c3c(=O)cc(-c4ccccc4Cl)oc23)[C@H](O)C1 [alvocidib] (assay: log2 fold change, soluble protein after heating vs DMSO (PISA); higher = thermal stabilisation; K562 cells, 10 uM, 30 min; active = over 0.2 and 3.5 SD of the protein, either way, in both replicates (recomputed)).
Summary of the method: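 Thermal stability values are relative to control samples and come from duplicates. They are expressed as log2 fold changes. For measurement, K562 cells (2×10^6 cells/mL) received 10 μM compound for 30 min, and aliquots were heated for 3 min over 48°C-58°C, pooled, and extracted at 4°C in PBS with 0.5% NP-40. Soluble protein, the supernatant after 21,000xg for 90 min, was quantified by TMTpro 16plex LC-MS/MS with equalised channel sums.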

log2 fold change, inactive:
HTR1F (UniProt P30939) -0.191
HNRNPA1 (UniProt H0YH80) 0.512
HOOK2 (UniProt Q96ED9) 0.116
HMGXB4 (UniProt Q9UGU5) 0.128
ICE2 (UniProt Q659A1) -0.005
HOMER2 (UniProt Q9NSB8) 0.103
HPS1 (UniProt Q92902) -0.008
HM13 (UniProt Q8TCT9) -0.016
HMG20B (UniProt Q9P0W2) -0.105
HNRNPR (UniProt O43390) 0.054
HSPBAP1 (UniProt Q96EW2) 0.011
HLA-A isoform 2 (UniProt P04439) -0.008
ICA1 isoform 2 (UniProt Q05084) -0.039
HOMER3 (UniProt Q9NSC5) -0.06
HMBS (UniProt F5H226) 0.21
HTD2 (UniProt P86397) -0.119

For convenience, part of the list above:
log2 fold change, inactive:
HTR1F (UniProt P30939) -0.191
HNRNPA1 (UniProt H0YH80) 0.512
